In patent EP1289507B1, “USE OF AN ALDOSTERONE ANTAGONIST FOR THE TREATMENT OR PROPHYLAXIS OF ALDOSTERONE-MEDIATED PATHOGENIC EFFECTS” (priority 2000, dated 2001):

Columns and labels:
[1] = test system: captopril-treated, saline-drinking SHRSP; experiment: Protocol 2: Angiotensin II-induced renal damage in captopril-treated saline-drinking SHRSP; assay type: in vivo, male SHRSP/A3N; details: for Absolute kidney weight at autopsy / Body weight: end of the experiment
Experimental: (§1) Animals. Studies were conducted in accordance with institutional guidelines using male SHRSP/A3N (generations F-75 to F-78), n = 37, from our local colony. These animals were bred from NIH stock, derived from the SHRSP/A3N substrain described originally by Okamoto and coworkers (Okamoto K et al. Circ. Res. 34 and 35 (suppl I):I-143-I-153.). All animals were housed in a room maintained on a 12:12-h light:dark-cycle and an ambient temperature of 22 ± 1°C in the Animal Care Facility at New York Medical College. Rats were weaned at 4 weeks of age and allowed free access to Purina Lab Chow 5001 (Ralston Purina, St. Louis, MO) and tap water until the initiation of experimental protocols.
SHRSP were placed on Stroke-Prone Rodent Diet (#39-288, Zeigler Bros Inc., Gardners, PA) and 1% NaCl drinking solution ad libitum starting at 8.3 weeks of age. […] Animals were handled and weighed daily. Urine samples were collected for the assessment of proteinuria. Systolic blood pressure and heart rate were measured each week. After 2 weeks of treatment, animals were decapitated, trunk blood was collected into chilled EDTA tubes, and the kidneys were removed, blotted dry, and immediately weighed. Coronal sections of kidney were fixed and later processed for light microscopic evaluation.
(§2) Assays and Analyses. Systolic blood pressure and heart rate of awake animals were measured by tail-cuff plethysmography using a Natsume KN-210 manometer and tachometer (Peninsula Laboratories Inc., Belmont, CA). Rats were warmed at 37°C for 10 min and allowed to rest quietly in a Lucite chamber before measurement of blood pressure. Measurements of urine volume were made gravimetrically. Urinary protein concentration was determined by the sulfosalicylic acid turbidity method. Plasma aldosterone was measured by radioimmunoassay using ^125I-aldosterone as a tracer (Coat-a Count Aldosterone, Diagnostic Products Co., Los Angeles, CA).
Histology. Kidneys were preserved in 10% phosphate-buffered formalin. Coronal sections (2-3 µm) were stained with hematoxylin and eosin and examined by light microscopy in a blinded fashion as previously described (Stier CT et al. J Pharmacol Exp Ther (1992) 260:1410-1415). Glomerular damage was categorized as ischemic or thrombotic. Ischemic lesions were defined as retraction of glomerular capillary tufts with or without appreciable mesangiolysis. Glomerular thrombotic lesions were defined as any one of a combination of the following: segmental to global fibrinoid necrosis, focal thrombosis of glomerular capillaries, swelling and proliferation of intracapillary (endothelial and mesangial) and/or extracapillary cells (crescents), and expansion of reticulated mesangial matrix with or without significant hypercellularity. […] Vascular thrombotic lesions were defined as any one or a combination of the following: mural fibrinoid necrosis, extravasation and fragmentation of red blood cells, and luminal and/or mural thrombosis. […] Vascular damage was expressed as the number of arteries and arterioles with lesions per 100 glomeruli. The presence of casts and tubular (ischemic) retraction and simplification was assessed semiquantitatively.
Statistical Analysis. Significant effects with respect to treatment and time were determined by two-way analysis of variance. Data with only one grouping variable were analyzed statistically by Student's unpaired t tests. […] Data were analyzed using version 2.01 of the GraphPad Prism statistical software package (GraphPad Software Inc., San Diego, CA). […]

[2] = Plasma renin activity and serum aldosterone as a function of the eplerenone dose (Figure 12); assay type: in vivo, human subject; details: increasing doses of eplerenone
[3] = test system: saline-drinking SHRSP; experiment: Protocol 1: renal pathologic changes in saline-drinking SHRSP; assay type: in vivo, male SHRSP/A3N; details: 100 mg/kg/d, 5 weeks
Experimental: as §1
Eighteen SHRSP were given 1% NaCl to drink and were fed Stroke-Prone Rodent Diet (#39-288, Zeigler Brothers, Inc., Gardners, PA) starting at 8.1 weeks of age. […] Systolic arterial pressure and heart rate were measured each week in awake rats. […]
as §2, with “CA). […]” for “CA). Rats were warmed at 37°C for 10 min and allowed to rest quietly in a Lucite chamber before measurement of blood pressure. Measurements of urine volume were made gravimetrically.”, “CA). […]” for “CA).”

Row | SMILES | Absolute kidney weight at autopsy [1] [g] | Body weight [1] [g] | plasma renin activity [2] | serum aldosterone [2] | Absolute kidney weight at autopsy [3] [g] | terminal body weight [3] [g] | plasma aldosterone concentration ([1]; captopril alone, or captopril plus angiotensin II plus eplerenone, Figure A-18) [pg/mL]
1 | COC(=O)[C@@H]1CC2=CC(=O)CC[C@]2(C)[C@@]23O[C@@H]2C[C@@]2(C)[C@@H](CC[C@@]24CCC(=O)O4)[C@H]13 [Eplerenone, Pregn-4-ene-7,21-dicarboxylic acid, 9,11-epoxy-17-hydroxy-3-oxo-, γ-lactone, methyl ester, (7α, 11α, 17β)-] | 2.00 ± 0.03 | 234 ± 5 | increased levels of plasma renin activity | increased levels of serum aldosterone | 2.58 ± 0.06 | 279 ± 7 | 
2 | C[C@H](CS)C(=O)N1CCC[C@H]1C(=O)O [Captopril, captopril, reference compound] | 2.56 ± 0.06 | 258 ± 6 |  |  |  |  | 107 ± 26
